Assay results as given in the supplement of paper PMC11348887.
Where a name gives a salt, the structure may show the parent alone. The list shows a part of the results. Most values lie at the level of the controls, where differences are scatter. Where a SMILES comes first, the peptide text is derived from it. [ ]: non-standard residue; d: D form. Dip = N[C@H](C(=O)O)C(c1ccccc1)c1ccccc1

How the values were obtained:
Conditions in all cases: 5 µM; treatment: days 7-14 after plating, readout day 21
[1] = tested on: hPSC-derived cortical neurons (WA09); assay: nucleus area z-score vs screen plate; higher = larger nuclei (more mature)
[2] = tested on: hPSC-derived cortical neurons (WA09); assay: total neurite length per nucleus (MAP2) z-score; higher = more neurite growth
[3] = tested on: hPSC-derived cortical neurons (WA09); assay: nucleus roundness z-score vs screen plate; higher = rounder nuclei (more mature)
[4] = tested on: hPSC-derived cortical neurons (WA09); assay: KCl-induced FOS+/EGR-1+ double-positive nuclei fraction z-score (KCl minus unstimulated); higher = stronger activity-induced IEG response

| SMILES | nucleus area z-score [1] | total neurite length per nucleus (z-score) [2] | nucleus roundness z-score [3] | KCl-induced FOS+/EGR-1+ double-positive nuclei fraction z-score [4] |
| --- | --- | --- | --- | --- |
| COc1c(C)c2c(c(O)c1C/C=C(\C)CCC(=O)O)C(=O)OC2 [Mycophenolic acid] | -1.09 | 0.4 | 0.338 | 0.452 |
| CCn1c2ccccc2c2cc(CNCc3ccccc3OC)ccc21 | -1.23 | -0.494 | -0.701 | 1.36 |
| O=C1c2cccc3c2[C@H](CCC3)CN1[C@@H]1CN2CCC1CC2 [Palonosetron HCl] | 0.747 | -0.208 | -0.218 | -0.832 |
| O=C(O)CC[C@@H](O)C(=O)O [Disodium (R)-2-Hydroxyglutarate] | 1.33 | 0.32 | 0.56 | 0.506 |
| O=C1NC(=O)[C@@H](c2cn3c4c(cccc24)CCC3)[C@@H]1c1c[nH]c2ccccc12 [Tivantinib (ARQ 197)] | -3.21 | 0.451 | -0.49 | -1.17 |
| O=c1sn(-c2cccc3ccccc23)c(=O)n1Cc1ccccc1 [Tideglusib] | -0.401 | 0.64 | 0.452 | 0.568 |
| CC(C)NCC(O)COc1cccc2ccccc12 (stereo unspecified) [Propranolol HCl] | 0.123 | -0.608 | -0.556 | -0.0118 |
| CN1CCCCC1CCN1c2ccccc2Sc2ccc([S+](C)[O-])cc21 (stereo unspecified) [Mesoridazine Besylate] | 0.234 | -0.684 | -1.46 | -0.92 |
| O=CN1CC/C(=C/c2ccc3c(c2)OCO3)C1=O | -0.209 | -0.631 | -0.697 | -0.147 |
| C[N+]1(C)CCC(OC(=O)C(O)(c2ccccc2)C2CCCC2)C1 (stereo unspecified) [Glycopyrrolate] | 0.112 | -0.252 | -0.0305 | 3.23 |
| CCC(C)(C)c1ccc(CC(C)CN2C[C@@H](C)O[C@@H](C)C2)cc1 (stereo partly specified) [Amorolfine HCl] | -2.23 | -3.82 | -5.12 | -0.428 |
| CN1CCN(Cc2ccc(-c3cnc4[nH]cc(-c5ccc6[nH]ccc6c5)c4c3)cc2)CC1 | -14.4 | -5.7 | -4.44 | 1.61 |
| CC(C)(CO)[C@@H](O)C(=O)NCCCO [D panthenol] | 0.354 | -0.219 | 0.193 | 0.783 |
| NC(=O)c1cnccn1 [Pyrazinamide] | -0.00948 | 0.453 | 0.652 | 1.41 |
| NCCCC[C@H](NC(=O)[C@@H](NC(=O)[C@H](Cc1c[nH]c2ccccc12)NC(=O)[C@H](CCCCN)NC(=O)[C@H](CCCCN)NC(=O)[C@H](Cc1c[nH]c2ccccc12)NC(=O)[C@H](Cc1c[nH]c2ccccc12)NC(=O)[C@H](CCCCN)NC(=O)[C@@H](N)CCCCN)C(c1ccccc1)c1ccccc1)C(N)=O (H-KKWWKKW[Dip]K-NH2) | -0.118 | 0.314 | -1.59 | 0.904 |
| CCN(CC)CCCC(C)Nc1ccnc2cc(Cl)ccc12 (stereo unspecified) [Chloroquine Phosphate] | 0.0659 | -0.207 | -0.0901 | -0.148 |
| CN1CCN(C(=O)C2C(C(=O)O)[C@H]3CC[C@@H]2O3)CC1 (stereo partly specified) | 0.733 | 0.18 | -1.1 | 0.0387 |
| OC[C@@H](O)[C@@H](O)[C@@H](O)CO [Ribitol] | -0.199 | 0.293 | 0.143 | 0.103 |
| CCCN1CCCC[C@H]1C(=O)Nc1c(C)cccc1C [Ropivacaine HCl] | 0.381 | -0.032 | -0.279 | 1.01 |
| CNC1CCCN(c2c(F)cc3c(=O)c(C(=O)O)cn(C4CC4)c3c2OC)C1 (stereo unspecified) [Balofloxacin] | -0.355 | -0.0465 | 0.626 | 0.387 |
| O=C1CC2(CCCC2)CC(=O)N1CCCCN1CCN(c2ncccn2)CC1 [Buspirone HCl] | 1.66 | -0.265 | -2.01 | 1.1 |
| CNC(=O)c1ccccc1Nc1nc(Nc2ccc(N3CCOCC3)cc2OC)ncc1Cl | -4.77 | -0.206 | -2.81 | 0.0627 |
| CC(C)(Cc1ccc2ccccc2c1)NC[C@@H](O)COc1cccc(Cl)c1C#N | -1.79 | -1.05 | -1.72 | -1.27 |
| O=c1cc(-c2ccccc2)oc2c(O)c(O)ccc12 [7,8-Dihydroxyflavone] | 0.539 | 0.646 | 1.19 | -0.371 |
| C[N+](C)(C)C[C@H](O)CC(=O)[O-] [L-carnitine] | 1.29 | -0.0995 | -0.423 | 0.795 |
| CC(C)Oc1ccc(-c2nc(-c3cccc4c3CC[C@@H]4NCCO)no2)cc1C#N [Ozanimod (RPC1063)] | 0.943 | 0.547 | -0.631 | 0.636 |
| N[C@@H](Cc1c[nH]c2ccc(O)cc12)C(=O)O [5-hydroxytryptophan (5-HTP)] | 0.843 | 0.573 | 0.386 | 0.554 |
| COc1ccccc1-c1cc(Nc2cccc(CS(N)(=O)=O)c2)ncn1 | -0.382 | -0.21 | -0.184 | 0.379 |
| CC(C)(C)NCC(O)c1cc(O)cc(O)c1 (stereo unspecified) [Terbutaline Sulfate] | 1.16 | 0.316 | -0.082 | 1.08 |

Taken from above:
nucleus area z-score [1], CCC(C)(C)c1ccc(CC(C)CN2C[C@@H](C)O[C@@H](C)C2)cc1 (stereo partly specified) [Amorolfine HCl] reads -2.23
nucleus area z-score [1], CCCN1CCCC[C@H]1C(=O)Nc1c(C)cccc1C [Ropivacaine HCl] reads 0.381
